# Test results taken from PubChem BioAssay AID2549 (National Center for Advancing Translational Sciences (NCATS), 2010).
# Amino acid sequences for entries named in this document (tags omitted). A change or cut given only in a name is not applied to a line headed by its entry.
# UniProt P46063: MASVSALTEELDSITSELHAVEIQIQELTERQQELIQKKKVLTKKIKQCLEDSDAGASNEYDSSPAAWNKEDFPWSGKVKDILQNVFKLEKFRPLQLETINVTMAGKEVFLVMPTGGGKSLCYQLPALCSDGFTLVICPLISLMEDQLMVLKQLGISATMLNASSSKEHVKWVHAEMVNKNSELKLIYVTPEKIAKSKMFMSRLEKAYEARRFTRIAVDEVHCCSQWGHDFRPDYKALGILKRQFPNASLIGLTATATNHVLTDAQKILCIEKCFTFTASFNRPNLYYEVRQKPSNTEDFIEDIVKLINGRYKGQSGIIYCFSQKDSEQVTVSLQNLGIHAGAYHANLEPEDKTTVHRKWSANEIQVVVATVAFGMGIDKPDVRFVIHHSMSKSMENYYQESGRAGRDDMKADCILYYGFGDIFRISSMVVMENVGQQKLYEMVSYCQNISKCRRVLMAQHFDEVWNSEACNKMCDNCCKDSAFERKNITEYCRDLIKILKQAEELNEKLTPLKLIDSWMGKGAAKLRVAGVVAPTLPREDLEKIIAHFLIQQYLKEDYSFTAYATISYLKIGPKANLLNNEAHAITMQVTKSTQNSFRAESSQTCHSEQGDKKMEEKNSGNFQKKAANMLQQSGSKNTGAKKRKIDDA
# The campaign covered roughly 240,000 compounds. About 1,300 (0.54%) were called active. Inconclusive results, whose numbers are uncertain, are shown with a selection of clear calls. Calls come from the whole dose curve; as a rule, active = well fitted inhibition curve with a large enough effect; inconclusive = small, poorly fitted or top-dose-only effect; inactive = flat fitted curve, though single readings scatter. A potency beside an inconclusive call is a rough fit, not a confirmed value.
# Target: ATP-dependent DNA helicase Q1 (Homo sapiens) (UniProt P46063)
# Test: qHTS Assay for Inhibitors of RecQ-Like Dna Helicase 1 (RECQ1); note: nearly all actives have a fitted effect of over 30% in size
# Conditions: RECQ1 DNA unwinding, red fluorescence kinetic read; series mostly up to 57.3 µM
# Method in brief: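 RECQ1T1 50 nM; forked duplex (20 bp + 30-nt ss tails) 200 nM, ATP 2 mM final; pH 8.0, 2 mM MgCl2, 2.5 ug/ml poly(dI-dC); 15 min compound preincubation; discontinuous kinetic read over 2 h at RT.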
# Potency is the fitted concentration of half-maximal effect.
row,Compound,Potency
1,O=C(CSc1nnnn1-c1ccc(F)cc1)c1ccc(O)c(O)c1,active: 5.01 µM
2,Cc1nnc2ccc(-c3ccc(NC(=O)c4ccco4)cc3)nn12,"inconclusive: 39.8 µM [inhibitor, single point]"
3,CC(=O)O[C@H]1CC[C@]2(C)[C@H]3CC=C4[C@@H]5[C@@H](C)[C@H](C)CC[C@]5(C(=O)O)CC[C@@]4(C)[C@]3(C)CC[C@H]2C1(C)C,"inconclusive: 0.562 µM [inhibitor, single point]"
4,COc1ccccc1CNC(=O)COC(=O)c1cc(-c2ccco2)nc2ccccc12,"inconclusive: 28.2 µM [inhibitor, partial curve, poor fit]"
5,O=C(c1cc(-c2ccco2)on1)N1CCc2ccccc2C1,"inconclusive: 39.8 µM [inhibitor, single point]"
6,O=C(c1ccc(-c2nnc(Nc3ccccc3)c3ccccc23)cc1)N1C[C@H]2C[C@H](C1)c1cccc(=O)n1C2,"inconclusive: 14.1 µM [inhibitor, partial curve, poor fit]"
7,CC1(OC(=O)c2cnc3ccccc3n2)C(=O)C=C2C=C(C3CC3)OC=C2C1=O (stereo not drawn),active: 12.6 µM
8,Cc1ccc(CSc2nnc(SCC(=O)N/N=C/c3c[nH]c4ccccc34)s2)cc1,"inconclusive: 3.98 µM [inhibitor, full curve]"
9,O=C(Nc1ccccc1)OCCCc1ccccc1,"inconclusive: 39.8 µM [inhibitor, partial curve]"
10,Cc1cc(=O)[nH]c(NCc2ccccc2)n1,"inconclusive: 0.0708 µM [inhibitor, partial curve, poor fit]"
11,CCOC(=O)C1=C(C)N=C2c3ccccc3C(=O)C2C1c1ccc(C)cc1 (stereo not drawn),inactive
12,COC(=O)CCCC1=CC2=CC(=O)C(C)(OC(=O)c3cccs3)C(=O)C2=CN1c1ccc(OC)cc1 (stereo not drawn),"inconclusive: 39.8 µM [inhibitor, single point]"
13,O=C1CC(=O)c2c1cccc2[N+](=O)[O-],"inconclusive: 35.5 µM [inhibitor, single point]"
14,COc1ccc(C2=Nn3c(nnc3-c3ccc(OC)c(OC)c3)SC2)cc1,inactive
15,CC(=O)Nc1ccc2nc(NC(=O)COc3ccc(C)cc3)sc2c1,"inconclusive: 7.08 µM [inhibitor, partial curve]"
16,c1ccc(-c2cn3nc4c(nc3n2)CCCC4)cc1,inactive
17,Cc1ccccc1OCC(=O)NNC(=S)NC(=O)c1ccccc1[N+](=O)[O-],"inconclusive: 1.12 µM [inhibitor, full curve]"
18,Cc1ccc(CSC2=Nc3ccccc3C3=NC(CC(=O)NCc4ccco4)C(=O)N23)cc1 (stereo not drawn),"inconclusive: 31.6 µM [inhibitor, single point]"

# Quoted from the listing:
# Value of `O=C(c1cc(-c2ccco2)on1)N1CCc2ccccc2C1` under Potency: inconclusive: 39.8 µM [inhibitor, single point]
# Value of `Cc1nnc2ccc(-c3ccc(NC(=O)c4ccco4)cc3)nn12` under Potency: inconclusive: 39.8 µM [inhibitor, single point]
